Test results as given in the supplement of paper PMC10849652.
This is one part of the list.

Sequences of proteins named here, by UniProt entry; tags and fusion partners are left off. A change or cut given only in a name is not applied to a line headed by its entry.
UniProt P51160: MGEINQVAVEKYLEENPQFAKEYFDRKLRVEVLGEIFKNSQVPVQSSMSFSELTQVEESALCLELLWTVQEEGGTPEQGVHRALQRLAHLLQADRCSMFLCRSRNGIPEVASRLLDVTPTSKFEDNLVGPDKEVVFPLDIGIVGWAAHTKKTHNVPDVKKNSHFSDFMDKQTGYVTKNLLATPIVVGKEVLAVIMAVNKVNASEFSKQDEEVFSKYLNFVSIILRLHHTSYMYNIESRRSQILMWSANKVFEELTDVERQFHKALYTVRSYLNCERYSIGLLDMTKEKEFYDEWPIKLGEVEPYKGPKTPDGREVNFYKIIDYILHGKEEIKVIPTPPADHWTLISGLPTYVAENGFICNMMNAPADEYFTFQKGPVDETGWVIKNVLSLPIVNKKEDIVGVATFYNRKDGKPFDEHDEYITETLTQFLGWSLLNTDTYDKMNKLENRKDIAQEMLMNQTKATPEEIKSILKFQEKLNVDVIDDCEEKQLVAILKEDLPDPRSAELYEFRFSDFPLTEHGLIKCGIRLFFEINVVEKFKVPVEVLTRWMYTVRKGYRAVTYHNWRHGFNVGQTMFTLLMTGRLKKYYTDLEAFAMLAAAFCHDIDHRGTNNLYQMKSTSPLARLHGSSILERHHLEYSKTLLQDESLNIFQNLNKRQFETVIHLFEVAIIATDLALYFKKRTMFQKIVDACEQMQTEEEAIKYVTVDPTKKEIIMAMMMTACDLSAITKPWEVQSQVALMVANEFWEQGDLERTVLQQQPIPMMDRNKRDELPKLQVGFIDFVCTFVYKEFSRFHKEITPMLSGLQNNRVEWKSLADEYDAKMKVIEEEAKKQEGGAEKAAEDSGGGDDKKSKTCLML
UniProt Q13153, whole entry, looked up: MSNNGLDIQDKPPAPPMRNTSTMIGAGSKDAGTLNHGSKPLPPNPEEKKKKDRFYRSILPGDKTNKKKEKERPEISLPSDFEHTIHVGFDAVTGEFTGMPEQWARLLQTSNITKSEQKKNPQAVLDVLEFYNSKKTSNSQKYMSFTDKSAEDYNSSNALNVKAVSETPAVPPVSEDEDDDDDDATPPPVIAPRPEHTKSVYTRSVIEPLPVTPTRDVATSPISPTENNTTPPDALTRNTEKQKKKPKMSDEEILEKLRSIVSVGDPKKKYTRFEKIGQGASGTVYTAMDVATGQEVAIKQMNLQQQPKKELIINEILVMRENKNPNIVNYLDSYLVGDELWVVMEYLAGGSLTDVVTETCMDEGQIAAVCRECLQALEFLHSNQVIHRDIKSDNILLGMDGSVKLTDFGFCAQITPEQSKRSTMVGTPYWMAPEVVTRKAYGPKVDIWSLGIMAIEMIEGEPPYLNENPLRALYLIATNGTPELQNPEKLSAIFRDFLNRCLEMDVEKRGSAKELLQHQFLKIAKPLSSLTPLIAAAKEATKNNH
UniProt O96011, whole entry, looked up, stated change not applied: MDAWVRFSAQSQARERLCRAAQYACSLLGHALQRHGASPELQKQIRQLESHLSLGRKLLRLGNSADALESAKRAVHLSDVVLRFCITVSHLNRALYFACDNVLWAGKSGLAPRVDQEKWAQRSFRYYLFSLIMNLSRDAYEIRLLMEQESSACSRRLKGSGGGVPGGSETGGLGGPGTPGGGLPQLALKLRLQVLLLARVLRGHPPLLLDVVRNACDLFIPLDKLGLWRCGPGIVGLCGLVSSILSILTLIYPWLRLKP
UniProt Q86TB9: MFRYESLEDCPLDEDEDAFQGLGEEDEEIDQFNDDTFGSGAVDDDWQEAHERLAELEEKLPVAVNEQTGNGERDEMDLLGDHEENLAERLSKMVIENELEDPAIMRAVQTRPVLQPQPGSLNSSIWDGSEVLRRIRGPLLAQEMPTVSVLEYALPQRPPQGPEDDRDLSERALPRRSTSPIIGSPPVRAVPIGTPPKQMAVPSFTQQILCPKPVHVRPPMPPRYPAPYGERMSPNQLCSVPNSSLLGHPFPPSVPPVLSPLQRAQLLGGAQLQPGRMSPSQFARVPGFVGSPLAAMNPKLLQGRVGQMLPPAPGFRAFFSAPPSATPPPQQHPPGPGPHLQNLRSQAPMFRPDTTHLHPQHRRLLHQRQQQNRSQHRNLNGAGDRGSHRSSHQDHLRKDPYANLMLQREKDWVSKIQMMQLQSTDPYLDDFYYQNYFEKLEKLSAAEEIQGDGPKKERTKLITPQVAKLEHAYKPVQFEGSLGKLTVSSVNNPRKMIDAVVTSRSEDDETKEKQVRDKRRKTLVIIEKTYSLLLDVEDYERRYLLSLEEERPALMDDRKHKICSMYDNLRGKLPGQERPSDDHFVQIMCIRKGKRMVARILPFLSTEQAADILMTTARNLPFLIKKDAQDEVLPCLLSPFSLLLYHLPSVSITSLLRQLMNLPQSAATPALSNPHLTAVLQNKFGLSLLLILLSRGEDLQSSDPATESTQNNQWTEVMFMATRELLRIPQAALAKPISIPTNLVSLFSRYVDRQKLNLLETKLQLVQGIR
UniProt O60829: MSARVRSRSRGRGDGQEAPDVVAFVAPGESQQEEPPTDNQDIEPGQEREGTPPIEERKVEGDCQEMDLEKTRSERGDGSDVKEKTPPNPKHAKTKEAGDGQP
UniProt O15530: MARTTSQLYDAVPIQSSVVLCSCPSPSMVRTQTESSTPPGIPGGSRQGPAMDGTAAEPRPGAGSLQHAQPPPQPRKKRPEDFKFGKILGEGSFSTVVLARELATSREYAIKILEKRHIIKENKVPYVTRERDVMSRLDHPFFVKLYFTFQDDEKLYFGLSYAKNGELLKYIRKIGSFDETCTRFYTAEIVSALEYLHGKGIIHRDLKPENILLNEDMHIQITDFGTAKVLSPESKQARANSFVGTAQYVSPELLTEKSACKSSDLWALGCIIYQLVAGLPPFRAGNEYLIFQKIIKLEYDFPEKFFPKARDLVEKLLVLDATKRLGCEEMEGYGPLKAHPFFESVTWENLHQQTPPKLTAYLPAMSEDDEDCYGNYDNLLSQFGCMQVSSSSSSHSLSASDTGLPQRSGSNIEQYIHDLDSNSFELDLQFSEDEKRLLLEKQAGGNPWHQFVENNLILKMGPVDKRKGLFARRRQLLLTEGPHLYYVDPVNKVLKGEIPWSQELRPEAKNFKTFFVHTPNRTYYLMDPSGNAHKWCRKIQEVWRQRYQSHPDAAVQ
UniProt Q92968: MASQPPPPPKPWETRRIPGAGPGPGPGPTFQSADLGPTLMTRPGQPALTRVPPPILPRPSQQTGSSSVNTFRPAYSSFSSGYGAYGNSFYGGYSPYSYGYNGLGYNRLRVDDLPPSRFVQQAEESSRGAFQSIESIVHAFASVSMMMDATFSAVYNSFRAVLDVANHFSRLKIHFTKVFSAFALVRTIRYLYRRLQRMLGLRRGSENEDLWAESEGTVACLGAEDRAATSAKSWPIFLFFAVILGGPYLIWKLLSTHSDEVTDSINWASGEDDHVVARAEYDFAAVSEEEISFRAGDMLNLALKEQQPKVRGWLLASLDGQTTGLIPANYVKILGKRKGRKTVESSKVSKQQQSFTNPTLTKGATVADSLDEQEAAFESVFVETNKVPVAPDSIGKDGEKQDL
UniProt Q9NTI5: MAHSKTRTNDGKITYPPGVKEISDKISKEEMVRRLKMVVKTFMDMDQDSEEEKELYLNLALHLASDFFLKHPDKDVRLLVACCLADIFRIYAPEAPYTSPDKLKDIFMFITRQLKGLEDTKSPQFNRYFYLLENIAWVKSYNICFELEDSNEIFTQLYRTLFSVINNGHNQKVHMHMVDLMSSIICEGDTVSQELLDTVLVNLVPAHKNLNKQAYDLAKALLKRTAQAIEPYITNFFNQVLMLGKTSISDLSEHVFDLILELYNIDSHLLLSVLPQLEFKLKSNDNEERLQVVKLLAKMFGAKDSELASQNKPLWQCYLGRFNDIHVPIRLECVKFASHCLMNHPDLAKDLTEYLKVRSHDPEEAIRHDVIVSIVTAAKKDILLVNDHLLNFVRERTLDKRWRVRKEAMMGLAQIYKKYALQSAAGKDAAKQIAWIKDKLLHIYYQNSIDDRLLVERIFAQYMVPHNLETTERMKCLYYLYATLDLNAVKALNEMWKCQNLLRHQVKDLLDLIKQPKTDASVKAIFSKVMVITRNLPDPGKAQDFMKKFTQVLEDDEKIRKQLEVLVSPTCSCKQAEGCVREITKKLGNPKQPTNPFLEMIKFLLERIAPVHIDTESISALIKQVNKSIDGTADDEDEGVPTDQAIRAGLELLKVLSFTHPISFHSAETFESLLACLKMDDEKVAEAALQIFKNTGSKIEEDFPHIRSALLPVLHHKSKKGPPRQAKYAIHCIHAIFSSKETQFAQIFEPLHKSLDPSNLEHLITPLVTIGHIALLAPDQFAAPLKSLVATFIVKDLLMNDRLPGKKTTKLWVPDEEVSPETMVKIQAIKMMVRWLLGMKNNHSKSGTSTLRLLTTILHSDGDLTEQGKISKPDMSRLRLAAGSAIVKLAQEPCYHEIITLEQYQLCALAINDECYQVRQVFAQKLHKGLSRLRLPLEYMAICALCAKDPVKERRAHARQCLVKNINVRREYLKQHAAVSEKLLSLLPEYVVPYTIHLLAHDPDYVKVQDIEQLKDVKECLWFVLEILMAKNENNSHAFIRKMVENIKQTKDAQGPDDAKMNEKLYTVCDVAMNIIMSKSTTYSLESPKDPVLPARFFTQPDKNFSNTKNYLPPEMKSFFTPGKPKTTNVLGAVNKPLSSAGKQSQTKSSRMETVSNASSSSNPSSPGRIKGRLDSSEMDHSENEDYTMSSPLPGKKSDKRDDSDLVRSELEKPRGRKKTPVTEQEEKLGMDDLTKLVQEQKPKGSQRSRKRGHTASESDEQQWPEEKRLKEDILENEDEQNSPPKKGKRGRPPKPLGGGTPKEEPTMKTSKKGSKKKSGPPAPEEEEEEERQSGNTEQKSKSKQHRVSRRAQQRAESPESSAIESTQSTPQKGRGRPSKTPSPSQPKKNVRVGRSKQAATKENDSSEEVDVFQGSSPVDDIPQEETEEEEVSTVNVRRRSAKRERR
UniProt Q9NR12, whole entry, looked up: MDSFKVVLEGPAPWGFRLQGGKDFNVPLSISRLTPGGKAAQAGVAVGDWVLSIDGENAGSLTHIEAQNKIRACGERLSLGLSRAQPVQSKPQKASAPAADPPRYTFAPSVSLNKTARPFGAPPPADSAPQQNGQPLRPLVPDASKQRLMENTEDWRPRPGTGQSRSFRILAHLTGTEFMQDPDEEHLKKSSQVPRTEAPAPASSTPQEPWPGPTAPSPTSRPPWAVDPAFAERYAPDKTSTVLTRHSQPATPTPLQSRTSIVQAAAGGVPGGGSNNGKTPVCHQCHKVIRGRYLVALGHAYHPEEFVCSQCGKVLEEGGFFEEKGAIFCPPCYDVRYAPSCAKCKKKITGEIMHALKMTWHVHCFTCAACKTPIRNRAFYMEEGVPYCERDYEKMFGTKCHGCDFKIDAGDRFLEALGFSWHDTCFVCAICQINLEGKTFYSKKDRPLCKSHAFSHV
UniProt Q504Q3: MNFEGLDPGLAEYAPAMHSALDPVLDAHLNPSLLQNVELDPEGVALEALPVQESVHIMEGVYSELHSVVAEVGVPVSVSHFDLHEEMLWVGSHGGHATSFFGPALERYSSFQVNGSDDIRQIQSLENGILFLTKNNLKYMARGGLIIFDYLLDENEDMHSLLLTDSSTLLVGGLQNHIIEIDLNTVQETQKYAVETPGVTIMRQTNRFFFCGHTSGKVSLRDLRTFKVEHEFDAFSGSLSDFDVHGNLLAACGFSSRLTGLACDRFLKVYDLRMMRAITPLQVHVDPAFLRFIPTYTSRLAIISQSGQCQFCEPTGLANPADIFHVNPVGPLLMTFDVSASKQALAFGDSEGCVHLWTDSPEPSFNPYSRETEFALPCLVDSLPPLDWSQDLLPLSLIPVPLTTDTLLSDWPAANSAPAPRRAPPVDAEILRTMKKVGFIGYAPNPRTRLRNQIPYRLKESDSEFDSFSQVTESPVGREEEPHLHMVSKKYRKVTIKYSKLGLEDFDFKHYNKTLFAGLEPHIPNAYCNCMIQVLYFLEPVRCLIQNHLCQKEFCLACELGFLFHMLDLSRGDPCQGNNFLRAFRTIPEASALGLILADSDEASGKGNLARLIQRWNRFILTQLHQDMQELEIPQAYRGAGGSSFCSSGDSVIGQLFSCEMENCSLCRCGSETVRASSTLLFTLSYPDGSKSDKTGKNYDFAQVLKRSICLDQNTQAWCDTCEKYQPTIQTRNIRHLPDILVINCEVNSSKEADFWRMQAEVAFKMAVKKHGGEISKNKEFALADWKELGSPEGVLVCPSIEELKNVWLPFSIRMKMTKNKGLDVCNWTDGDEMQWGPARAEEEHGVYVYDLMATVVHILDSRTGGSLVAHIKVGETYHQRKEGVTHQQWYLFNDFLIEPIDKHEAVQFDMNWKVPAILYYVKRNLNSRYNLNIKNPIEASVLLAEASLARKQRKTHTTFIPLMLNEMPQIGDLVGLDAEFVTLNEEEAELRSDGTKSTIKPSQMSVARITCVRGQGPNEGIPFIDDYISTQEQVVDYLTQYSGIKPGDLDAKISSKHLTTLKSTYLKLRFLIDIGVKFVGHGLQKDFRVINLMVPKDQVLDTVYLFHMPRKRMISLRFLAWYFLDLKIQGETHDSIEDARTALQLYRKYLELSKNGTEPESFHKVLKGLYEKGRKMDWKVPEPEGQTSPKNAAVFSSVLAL

What was measured:
Experiment in all cases: log2 fold change, soluble protein after heating vs DMSO (PISA); higher = thermal stabilisation; K562 cells, 10 uM, 30 min; active = over 0.2 and 3.5 SD of the protein, either way, in both replicates (recomputed)
[1] = compound: CC[C@@H]1C(=O)N(C)c2cnc(Nc3ccc(C(=O)NC4CCN(C)CC4)cc3OC)nc2N1C1CCCC1
Method in brief: (§1)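 K562 cells at 2×10^6 cells/mL were treated with 10 μM compound for 30 min. Aliquots were heated for 3 min across 48°C-58°C, pooled, and extracted in PBS with 0.5% NP-40 at 4°C; soluble protein was the supernatant after 21,000xg for 90 min. Soluble protein was quantified by TMTpro 16plex LC-MS/MS with channel sums equalised, and reported as log2 fold change in thermal stability against DMSO controls, with values from duplicates.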

volasertib = compound: CC[C@@H]1C(=O)N(C)c2cnc(Nc3ccc(C(=O)N[C@H]4CC[C@H](N5CCN(CC6CC6)CC5)CC4)cc3OC)nc2N1C(C)C [volasertib]
Method in brief: as §1

[2] = compound: CC[C@H](C)N1C=C(C2=C(C=C(C=C21)C3=CN=C(C=C3)N4CCNCC4)C(=O)NCC5=C(C=C(NC5=O)C)C)C
Method in brief: as §1

[3] = compound: CN(C)CC(=O)Nc1ccc2[nH]c(=O)c3ccccc3c2c1
Method in brief: as §1

rosiglitazone = compound: CN(CCOC1=CC=C(C=C1)C[C@H]2C(=O)NC(=O)S2)C3=CC=CC=N3 (racemic) [rosiglitazone]
Method in brief: as §1

[4] = compound: CN1C2=C(C3=C1C(=O)N(N=C3)CC4=CC(=CC=C4)N)SC(=C2)S(=O)C
Method in brief: as §1

saracatinib = compound: CN1CCN(CCOc2cc(OC3CCOCC3)c3c(Nc4c(Cl)ccc5c4OCO5)ncnc3c2)CC1 [saracatinib]
Method in brief: as §1

sotrastaurin = compound: CN1CCN(c2nc(C3=C(c4c[nH]c5ccccc45)C(=O)NC3=O)c3ccccc3n2)CC1 [sotrastaurin]
Method in brief: as §1

alvocidib = compound: CN1CC[C@H](c2c(O)cc(O)c3c(=O)cc(-c4ccccc4Cl)oc23)[C@H](O)C1 [alvocidib]
Method in brief: as §1

Tubastatin A = compound: CN1CCc2c(c3ccccc3n2Cc2ccc(C(=O)NO)cc2)C1 [Tubastatin A]
Method in brief: as §1

defactinib = compound: CNC(=O)c1ccc(Nc2ncc(C(F)(F)F)c(NCc3nccnc3N(C)S(C)(=O)=O)n2)cc1 [defactinib]
Method in brief: as §1

rucaparib = compound: CNCc1ccc(-c2[nH]c3cc(F)cc4c3c2CCNC4=O)cc1 [rucaparib]
Method in brief: as §1

[5] = compound: CNc1nc(-c2ccc3c(N)n[nH]c3c2)cc(N2C[C@@H](C(=O)NC3CCCCC3)CC[C@H]2C)n1
Method in brief: as §1

encorafenib = compound: COC(=O)N[C@@H](C)CNc1nccc(-c2cn(C(C)C)nc2-c2cc(Cl)cc(NS(C)(=O)=O)c2F)n1 [encorafenib]
Method in brief: as §1

[6] = compound: COC(=O)[C@H](CCSC)NC(=O)C1=C(C=C(C=C1)NC[C@H](CS)N)C2=CC=CC=C2
Method in brief: as §1

epoxomicin = compound: CC[C@H](C)[C@@H](C(=O)N[C@@H]([C@@H](C)O)C(=O)N[C@@H](CC(C)C)C(=O)[C@]1(CO1)C)NC(=O)[C@H]([C@@H](C)CC)N(C)C(=O)C [epoxomicin]
Method in brief: as §1

[7] = compound: CCn1cc(-c2ccnc3[nH]c(-c4cccc(CN(C)C)c4)cc23)c(-c2ccc(NC(=O)N(C)C)cc2)n1
Method in brief: as §1

[8] = compound: CN1CCC(CNc2ccc3ncc(-c4cccc(OC(F)(F)F)c4)n3n2)CC1
Method in brief: as §1

[9] = compound: CNC(=O)C1=CC=CC=C1NC2=NC(=NC=C2Cl)NC3=C(C=C(C=C3)N4CCOCC4)OC
Method in brief: as §1

[10] = compound: CCn1c(C(=O)N(C2CC2)C2CC2)cc2c3c(ncn3C)c(Nc3cc(C)n(C)n3)nc21
Method in brief: as §1

Measured: log2 fold change

PDE6C (UniProt P51160)
inactive: [1] 0.029 | volasertib 0.012 | [2] -0.234 | [3] -0.014 | rosiglitazone 0.109 | [4] -0.011 | saracatinib 0.112 | sotrastaurin 0.006 | alvocidib -0.185 | Tubastatin A -0.166 | defactinib -0.23 | rucaparib -0.277 | [5] 0.026 | encorafenib 0.047 | [6] -0.17

PBK (UniProt Q96KB5)
inactive: [1] -0.18 | [2] 0.121 | epoxomicin -0.005 | [7] -0.026 | [3] 0.091 | [4] 0.053 | [8] -0.187 | saracatinib 0.01 | sotrastaurin -0.205 | Tubastatin A 0.089 | [9] 0.093 | defactinib -0.15 | rucaparib 0.187 | [5] 0.005 | encorafenib 0.198 | [6] -0.111
active: volasertib -0.601

PAK1 isoform 2 (UniProt Q13153)
inactive: [1] 0.032 | volasertib -0.022 | [2] -0.024 | epoxomicin 0.046 | [7] -0.122 | [3] 0.064 | [4] -0.062 | [8] -0.031 | saracatinib 0.074 | sotrastaurin -0.015 | Tubastatin A -0.098 | [9] 0.009 | defactinib 0.039 | rucaparib -0.082 | [5] -0.009 | encorafenib 0.033 | [6] 0.048

PEX11B (UniProt O96011)
inactive: [1] 0.071 | volasertib -0.018 | [2] -0.038 | epoxomicin -0.013 | [7] 0.04 | [3] 0.064 | [4] -0.085 | [8] 0.239 | saracatinib 0.052 | sotrastaurin -0.009 | Tubastatin A -0.021 | [9] 0.001 | defactinib -0.042 | rucaparib -0.006 | [5] -0.022 | encorafenib 0.024 | [6] -0.041

PATL1 (UniProt Q86TB9)
inactive: [1] 0.109 | volasertib 0.013 | epoxomicin -0.041 | [7] 0.051 | [3] 0.007 | [4] 0.104 | saracatinib -0.075 | sotrastaurin -0.16 | Tubastatin A -0.001 | [9] -0.135 | defactinib -0.078 | rucaparib 0.131 | [5] 0.025 | encorafenib 0.155 | [6] -0.066
active: [8] -0.445

PAGE4 (UniProt O60829)
inactive: [1] -0.029 | [2] 0.203 | epoxomicin 0.208 | [10] 0.037 | [7] 0.055 | [3] -0.059 | rosiglitazone -0.067 | [8] -0.441 | sotrastaurin -0.148 | alvocidib 0.185 | Tubastatin A -0.023 | [9] -0.018 | defactinib 0.004 | rucaparib 0.116 | encorafenib -0.024 | [6] -0.069

PDPK1 (UniProt O15530)
inactive: [1] -0.136 | volasertib -0.232 | [2] 0.034 | epoxomicin 0.055 | [7] -0.05 | [3] 0.034 | [4] -0.008 | [8] -0.275 | saracatinib -0.008 | sotrastaurin 0.034 | Tubastatin A 0.023 | [9] -0.064 | defactinib -0.025 | rucaparib -0.056 | encorafenib 0.041 | [6] 0
active: [5] 0.385

PEX13 (UniProt Q92968)
inactive: [1] -0.053 | volasertib -0.049 | [2] -0.038 | epoxomicin -0.009 | [7] 0.047 | [3] 0.019 | [4] 0.02 | [8] -0.378 | saracatinib -0.067 | sotrastaurin -0.083 | Tubastatin A 0.061 | [9] -0.061 | defactinib -0.011 | rucaparib -0.058 | [5] 0.008 | encorafenib 0.047 | [6] -0.087

PDS5B (UniProt Q9NTI5)
inactive: [1] -0.004 | volasertib 0.024 | [2] 0.12 | epoxomicin 0.105 | [7] 0.103 | [3] 0.079 | [4] 0.131 | [8] -0.41 | saracatinib -0.134 | sotrastaurin 0.039 | Tubastatin A 0.14 | [9] -0.169 | defactinib -0.101 | rucaparib -0.088 | [5] 0.014 | encorafenib 0 | [6] 0.032

PDCD2L (UniProt Q9BRP1)
inactive: [1] -0.201 | [2] 0.017 | epoxomicin 0.07 | [7] -0.171 | [3] 0.038 | [4] -0.038 | [8] -0.073 | saracatinib -0.072 | sotrastaurin -0.148 | Tubastatin A 0.048 | [9] 0 | defactinib -0.068 | rucaparib 0.038 | [5] -0.031 | encorafenib 0.127 | [6] -0.007
active: volasertib -0.435

PDLIM7 (UniProt Q9NR12)
active: volasertib -0.24
inactive: [1] -0.084 | [2] 0.012 | epoxomicin 0.013 | [7] -0.064 | [3] 0.039 | [4] 0.023 | [8] -0.021 | saracatinib 0.002 | sotrastaurin 0.016 | Tubastatin A -0.022 | [9] -0.014 | defactinib -0.083 | rucaparib 0.002 | [5] -0.013 | encorafenib 0.021 | [6] -0.021

PAN2 (UniProt Q504Q3)
active: rucaparib -0.656
inactive: [1] 0.101 | [2] 0.167 | [3] 0.006 | [4] 0.143 | saracatinib 0.113 | defactinib 0.001 | [5] -0.048 | encorafenib 0.073 | [6] -0.045

PAPOLA (UniProt G3XAH6)
inactive: [2] 0.134

PAFAH2 (UniProt Q99487)
inactive: volasertib -0.058 | [3] 0.005 | [4] -0.059 | saracatinib 0.023 | sotrastaurin -0.074 | Tubastatin A -0.196 | [9] -0.179 | defactinib -0.093 | [5] -0.133 | [6] -0.067
